Experimental data as given in the supplement of paper PMC12067093, “Discovery and optimisation of a covalent ligand for TRIM25 and its application to targeted protein ubiquitination” (Chemical Science, 2025).
The list shows a part of the results.

By UniProt entry, the sequences of proteins in these tests, tags left out. Where a name states a change or a piece, a line headed by the entry shows the natural chain unless it says otherwise.
UniProt Q9Y3S2: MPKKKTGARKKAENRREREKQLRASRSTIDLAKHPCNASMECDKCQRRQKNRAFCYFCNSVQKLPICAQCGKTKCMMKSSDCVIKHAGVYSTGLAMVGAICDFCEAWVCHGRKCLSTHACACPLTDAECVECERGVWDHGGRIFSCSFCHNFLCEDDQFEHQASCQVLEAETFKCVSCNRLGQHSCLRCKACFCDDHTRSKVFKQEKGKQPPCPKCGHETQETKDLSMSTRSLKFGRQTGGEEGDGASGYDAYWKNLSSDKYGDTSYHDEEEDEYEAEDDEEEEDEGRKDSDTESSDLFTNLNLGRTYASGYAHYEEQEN
UniProt Q96B54: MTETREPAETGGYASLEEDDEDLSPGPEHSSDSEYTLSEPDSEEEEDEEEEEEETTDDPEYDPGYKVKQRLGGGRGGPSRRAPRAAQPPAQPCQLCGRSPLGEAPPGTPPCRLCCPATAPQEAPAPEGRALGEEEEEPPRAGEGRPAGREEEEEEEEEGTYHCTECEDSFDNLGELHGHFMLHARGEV
UniProt Q96K83: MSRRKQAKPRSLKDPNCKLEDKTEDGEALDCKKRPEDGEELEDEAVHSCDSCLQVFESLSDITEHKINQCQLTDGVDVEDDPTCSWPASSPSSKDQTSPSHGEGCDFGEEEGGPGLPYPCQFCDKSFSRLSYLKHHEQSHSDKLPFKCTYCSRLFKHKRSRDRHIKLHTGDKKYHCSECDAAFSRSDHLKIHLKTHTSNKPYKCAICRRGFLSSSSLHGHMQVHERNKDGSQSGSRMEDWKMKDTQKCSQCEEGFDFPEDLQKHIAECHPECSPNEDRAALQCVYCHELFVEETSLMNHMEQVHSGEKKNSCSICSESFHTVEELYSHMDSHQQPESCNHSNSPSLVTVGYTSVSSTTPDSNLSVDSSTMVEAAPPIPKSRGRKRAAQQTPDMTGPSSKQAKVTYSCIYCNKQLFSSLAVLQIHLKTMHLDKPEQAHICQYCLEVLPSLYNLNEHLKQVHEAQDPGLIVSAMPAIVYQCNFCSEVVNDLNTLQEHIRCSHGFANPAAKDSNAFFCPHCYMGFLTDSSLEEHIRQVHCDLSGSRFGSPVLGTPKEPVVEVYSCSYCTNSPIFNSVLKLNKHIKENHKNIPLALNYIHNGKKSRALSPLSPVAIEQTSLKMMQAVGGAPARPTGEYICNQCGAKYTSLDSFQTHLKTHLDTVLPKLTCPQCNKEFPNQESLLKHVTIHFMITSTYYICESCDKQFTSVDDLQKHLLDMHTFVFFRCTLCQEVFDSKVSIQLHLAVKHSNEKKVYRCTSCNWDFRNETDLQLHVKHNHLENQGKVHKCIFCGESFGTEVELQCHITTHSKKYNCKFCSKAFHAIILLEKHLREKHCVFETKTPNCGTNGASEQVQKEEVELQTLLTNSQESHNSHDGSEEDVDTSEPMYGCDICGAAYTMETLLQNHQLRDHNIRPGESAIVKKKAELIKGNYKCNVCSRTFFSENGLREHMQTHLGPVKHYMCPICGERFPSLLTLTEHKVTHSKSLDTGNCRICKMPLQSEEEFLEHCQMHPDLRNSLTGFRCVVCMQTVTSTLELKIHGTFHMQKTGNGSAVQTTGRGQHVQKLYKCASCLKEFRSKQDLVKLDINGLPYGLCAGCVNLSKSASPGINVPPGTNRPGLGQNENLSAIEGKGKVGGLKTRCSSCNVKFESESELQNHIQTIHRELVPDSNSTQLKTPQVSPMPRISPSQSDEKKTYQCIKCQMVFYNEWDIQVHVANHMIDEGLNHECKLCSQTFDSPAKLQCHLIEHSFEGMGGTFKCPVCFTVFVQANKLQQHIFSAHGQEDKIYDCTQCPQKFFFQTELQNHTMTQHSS
UniProt Q9Y4E5: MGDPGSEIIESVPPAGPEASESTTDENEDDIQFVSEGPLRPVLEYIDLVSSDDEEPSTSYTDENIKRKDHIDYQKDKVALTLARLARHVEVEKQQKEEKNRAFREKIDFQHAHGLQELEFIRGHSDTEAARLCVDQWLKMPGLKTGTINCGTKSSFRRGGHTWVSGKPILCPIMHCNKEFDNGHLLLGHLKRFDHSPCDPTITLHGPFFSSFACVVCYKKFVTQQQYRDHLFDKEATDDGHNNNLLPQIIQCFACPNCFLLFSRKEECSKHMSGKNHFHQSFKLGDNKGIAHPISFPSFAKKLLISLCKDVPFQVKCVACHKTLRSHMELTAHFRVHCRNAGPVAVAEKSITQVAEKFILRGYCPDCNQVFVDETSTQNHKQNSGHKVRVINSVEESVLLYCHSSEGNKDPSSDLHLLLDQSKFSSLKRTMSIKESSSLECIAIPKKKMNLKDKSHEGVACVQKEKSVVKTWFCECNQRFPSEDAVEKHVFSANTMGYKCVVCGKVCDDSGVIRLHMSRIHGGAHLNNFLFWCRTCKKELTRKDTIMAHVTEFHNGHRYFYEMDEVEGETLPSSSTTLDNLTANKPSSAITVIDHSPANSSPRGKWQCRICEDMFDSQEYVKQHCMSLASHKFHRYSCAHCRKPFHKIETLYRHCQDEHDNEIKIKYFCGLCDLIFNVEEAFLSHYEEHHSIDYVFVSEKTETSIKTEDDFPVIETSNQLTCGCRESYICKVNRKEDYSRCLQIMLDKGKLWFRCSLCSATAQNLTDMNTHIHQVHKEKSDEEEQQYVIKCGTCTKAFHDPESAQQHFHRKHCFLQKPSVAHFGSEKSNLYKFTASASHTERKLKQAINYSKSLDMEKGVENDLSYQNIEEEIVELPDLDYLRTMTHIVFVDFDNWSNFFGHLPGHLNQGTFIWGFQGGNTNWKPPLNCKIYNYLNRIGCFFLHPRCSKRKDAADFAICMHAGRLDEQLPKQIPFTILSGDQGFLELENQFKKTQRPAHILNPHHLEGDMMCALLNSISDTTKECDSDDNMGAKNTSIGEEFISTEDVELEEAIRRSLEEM
UniProt Q8ND82: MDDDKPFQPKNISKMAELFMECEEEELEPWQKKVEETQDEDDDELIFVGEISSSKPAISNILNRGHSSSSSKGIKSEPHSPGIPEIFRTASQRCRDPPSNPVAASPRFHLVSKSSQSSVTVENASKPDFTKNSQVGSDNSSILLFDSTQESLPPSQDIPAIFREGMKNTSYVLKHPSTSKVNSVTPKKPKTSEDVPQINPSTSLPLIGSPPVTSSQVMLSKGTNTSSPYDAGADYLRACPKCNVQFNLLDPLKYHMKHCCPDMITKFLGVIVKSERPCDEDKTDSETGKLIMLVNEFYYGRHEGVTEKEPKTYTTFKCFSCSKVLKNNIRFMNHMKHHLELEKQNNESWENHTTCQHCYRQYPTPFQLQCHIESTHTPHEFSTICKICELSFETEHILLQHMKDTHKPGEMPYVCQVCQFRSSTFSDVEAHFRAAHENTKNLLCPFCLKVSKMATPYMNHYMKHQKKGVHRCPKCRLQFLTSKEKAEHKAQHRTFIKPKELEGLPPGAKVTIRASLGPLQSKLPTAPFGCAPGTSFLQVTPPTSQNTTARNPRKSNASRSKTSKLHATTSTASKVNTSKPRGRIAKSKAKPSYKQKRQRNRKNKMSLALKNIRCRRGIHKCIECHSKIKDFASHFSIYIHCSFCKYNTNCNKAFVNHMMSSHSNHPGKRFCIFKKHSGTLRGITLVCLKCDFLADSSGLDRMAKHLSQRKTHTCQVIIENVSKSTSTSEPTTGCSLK
UniProt Q86UK7: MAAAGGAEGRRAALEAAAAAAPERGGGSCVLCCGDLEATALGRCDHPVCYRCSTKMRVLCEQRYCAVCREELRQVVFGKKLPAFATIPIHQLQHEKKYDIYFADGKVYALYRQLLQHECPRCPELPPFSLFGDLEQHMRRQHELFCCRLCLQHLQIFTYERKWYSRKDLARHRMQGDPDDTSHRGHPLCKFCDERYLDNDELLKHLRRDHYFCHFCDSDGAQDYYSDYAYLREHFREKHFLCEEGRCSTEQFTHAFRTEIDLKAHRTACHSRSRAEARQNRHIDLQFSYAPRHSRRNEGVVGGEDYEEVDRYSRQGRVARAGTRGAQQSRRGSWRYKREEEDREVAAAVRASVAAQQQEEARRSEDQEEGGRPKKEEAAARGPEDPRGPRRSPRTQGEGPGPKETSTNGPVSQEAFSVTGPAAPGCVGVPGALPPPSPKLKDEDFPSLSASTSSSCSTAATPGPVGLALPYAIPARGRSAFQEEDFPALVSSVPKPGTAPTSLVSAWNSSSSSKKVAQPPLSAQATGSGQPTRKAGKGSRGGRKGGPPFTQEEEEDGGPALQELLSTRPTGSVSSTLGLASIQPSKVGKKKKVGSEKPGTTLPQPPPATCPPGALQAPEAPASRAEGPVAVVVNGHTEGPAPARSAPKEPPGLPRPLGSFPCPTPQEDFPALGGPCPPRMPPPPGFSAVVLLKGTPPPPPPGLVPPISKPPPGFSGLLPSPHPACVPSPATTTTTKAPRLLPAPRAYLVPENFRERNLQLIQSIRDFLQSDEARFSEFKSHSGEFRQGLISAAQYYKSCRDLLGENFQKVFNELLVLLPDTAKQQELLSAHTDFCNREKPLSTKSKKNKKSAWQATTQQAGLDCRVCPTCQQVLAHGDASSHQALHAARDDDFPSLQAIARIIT
UniProt O60293: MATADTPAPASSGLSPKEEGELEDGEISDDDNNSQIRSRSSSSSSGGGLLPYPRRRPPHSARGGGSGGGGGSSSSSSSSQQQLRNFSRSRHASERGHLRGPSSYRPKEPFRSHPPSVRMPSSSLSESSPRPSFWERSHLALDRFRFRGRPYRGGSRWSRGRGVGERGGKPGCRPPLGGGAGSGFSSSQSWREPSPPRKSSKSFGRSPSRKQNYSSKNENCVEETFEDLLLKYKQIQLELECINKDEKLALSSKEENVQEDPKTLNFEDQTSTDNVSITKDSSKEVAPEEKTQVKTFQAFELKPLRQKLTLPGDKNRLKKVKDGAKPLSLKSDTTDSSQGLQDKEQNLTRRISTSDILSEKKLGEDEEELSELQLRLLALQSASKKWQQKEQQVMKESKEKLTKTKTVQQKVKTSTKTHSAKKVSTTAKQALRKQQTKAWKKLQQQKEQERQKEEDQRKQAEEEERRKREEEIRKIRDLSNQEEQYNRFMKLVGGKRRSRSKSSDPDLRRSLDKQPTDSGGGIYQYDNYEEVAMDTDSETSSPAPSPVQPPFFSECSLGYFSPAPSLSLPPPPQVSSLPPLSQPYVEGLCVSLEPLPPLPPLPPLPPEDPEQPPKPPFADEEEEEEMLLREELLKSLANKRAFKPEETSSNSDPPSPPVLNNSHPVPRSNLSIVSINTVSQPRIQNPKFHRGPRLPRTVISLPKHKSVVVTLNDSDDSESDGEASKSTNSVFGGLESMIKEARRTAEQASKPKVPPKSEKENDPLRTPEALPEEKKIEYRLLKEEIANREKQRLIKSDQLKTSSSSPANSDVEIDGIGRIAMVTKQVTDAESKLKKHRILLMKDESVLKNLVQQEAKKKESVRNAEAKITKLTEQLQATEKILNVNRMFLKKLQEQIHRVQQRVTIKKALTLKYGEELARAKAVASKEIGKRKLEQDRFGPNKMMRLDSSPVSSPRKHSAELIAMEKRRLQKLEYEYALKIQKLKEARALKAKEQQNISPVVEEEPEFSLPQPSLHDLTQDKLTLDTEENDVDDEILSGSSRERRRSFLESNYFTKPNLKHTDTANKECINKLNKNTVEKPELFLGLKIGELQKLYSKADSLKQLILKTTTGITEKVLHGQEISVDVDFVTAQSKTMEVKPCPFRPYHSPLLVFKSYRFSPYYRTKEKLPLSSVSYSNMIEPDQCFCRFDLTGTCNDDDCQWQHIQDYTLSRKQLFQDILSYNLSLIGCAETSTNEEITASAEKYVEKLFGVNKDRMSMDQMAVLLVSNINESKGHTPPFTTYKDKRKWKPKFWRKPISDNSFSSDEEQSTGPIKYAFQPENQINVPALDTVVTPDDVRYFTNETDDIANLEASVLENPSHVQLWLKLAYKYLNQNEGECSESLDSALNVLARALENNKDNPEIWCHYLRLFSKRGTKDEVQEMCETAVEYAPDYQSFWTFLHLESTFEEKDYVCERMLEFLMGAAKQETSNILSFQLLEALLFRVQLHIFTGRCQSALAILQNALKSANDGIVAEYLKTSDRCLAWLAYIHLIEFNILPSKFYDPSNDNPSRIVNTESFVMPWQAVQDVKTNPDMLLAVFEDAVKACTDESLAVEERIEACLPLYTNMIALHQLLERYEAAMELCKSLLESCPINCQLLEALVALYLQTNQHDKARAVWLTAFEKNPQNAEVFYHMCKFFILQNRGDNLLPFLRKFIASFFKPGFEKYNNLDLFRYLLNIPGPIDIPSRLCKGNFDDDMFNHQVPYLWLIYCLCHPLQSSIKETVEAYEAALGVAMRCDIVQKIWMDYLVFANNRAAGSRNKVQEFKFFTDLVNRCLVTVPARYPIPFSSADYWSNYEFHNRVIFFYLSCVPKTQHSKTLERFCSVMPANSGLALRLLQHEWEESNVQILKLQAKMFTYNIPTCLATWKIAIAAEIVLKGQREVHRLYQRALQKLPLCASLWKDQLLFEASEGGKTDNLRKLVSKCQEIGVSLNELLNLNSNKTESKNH

compound: CC1Cc2ccccc2N1C(=O)C1CCCN(C1)C(=O)CCl (mixture of isomers) [TRIM25 ligand 11 (diastereomer mixture)]; experiment: probe-labelled cysteine peptide fold change vs DMSO (competition) (log2 fold change); higher = less target engagement (more negative = stronger competition); details: 10 µM; THP-1; incubation time: 4 h
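Also: competitive chemoproteomic profiling in live THP-1 cells with an iodoacetamide desthiobiotin (IA-DTB) probe, comparing probe-labelled peptide intensities in compound-treated cells against DMSO-treated controls.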

First: ZNF330_Q9Y3S2_132_CLSTHACACPLTDAECVECER (UniProt Q9Y3S2)
Second: ZNF428_Q96B54_114_LCCPATAPQEAPAPEGR (UniProt Q96B54)
The “probe-labelled cysteine peptide fold change” value of the first is lower: -0.0916 for the first, -0.082 for the second.

Going from “ZNF24_P17028_233_YGETCFPK (UniProt P17028)” to “ZNF516_Q92618_827_ECQPLLLAR (UniProt Q92618)”, the “probe-labelled cysteine peptide fold change” value rises from -0.0914 to -0.0146.

First: ZNF521_Q96K83_990_SLDTGNCR (UniProt Q96K83)
Second: ZNF451_Q9Y4E5_150_TGTINCGTK (UniProt Q9Y4E5)
The “probe-labelled cysteine peptide fold change” value of the first is higher: 0.0503 for the first, -0.067 for the second.

Going from “ZNF207_O43670_54_KLYTGPGLAIHCMQVHK (UniProt O43670)” to “ZMYM3_Q14202_1048_RLVLSESCSR (UniProt Q14202)”, the “probe-labelled cysteine peptide fold change” value rises from -0.6 to 0.141.

Going from “ZNF22_P17026_113_CDECGESFK (UniProt P17026)” to “ZNF644_Q9H582_450_HLNVPRPYACR (UniProt Q9H582)”, the “probe-labelled cysteine peptide fold change” value rises from -0.0931 to 0.113.

Compared with “ZNF451_Q9Y4E5_133_LCVDQWLK (UniProt Q9Y4E5)”, “ZNF143_P52747_299+304_CSEDNCTK (UniProt P52747)” is higher in “probe-labelled cysteine peptide fold change” value: 0.108 for the first, 0.23 for the second.

First: ZNF672_Q499Z4_204_VSDAHQCGVCGK (UniProt Q499Z4)
Second: ZNF280C_Q8ND82_714_THTCQVIIENVSK (UniProt Q8ND82)
The “probe-labelled cysteine peptide fold change” value of the first is lower: -0.00755 for the first, 0.0871 for the second.

Compared with “ZNF598_Q86UK7_33_GGGSCVLCCGDLEATALGR (UniProt Q86UK7)”, “ZNF430_Q9H8G1_138_CGHEDLQLR (UniProt Q9H8G1)” is higher in “probe-labelled cysteine peptide fold change” value: -0.0941 for the first, 0.00386 for the second.

Compared with “ZNF512B_Q96KM6_774_AHLASCSK (UniProt Q96KM6)”, “ZNF330_Q9Y3S2_216_CGHETQETK (UniProt Q9Y3S2)” is higher in “probe-labelled cysteine peptide fold change” value: -0.0388 for the first, -0.00941 for the second.

First: ZNF330_Q9Y3S2_194_ACFCDDHTR (UniProt Q9Y3S2)
Second: ZNF330_Q9Y3S2_70_LPICAQCGK (UniProt Q9Y3S2)
The “probe-labelled cysteine peptide fold change” value of the first is lower: -0.137 for the first, -0.033 for the second.

Going from “ZNF598_Q86UK7_150_LCLQHLQIFTYER (UniProt Q86UK7)” to “ZNF638_Q14966_652_NLEDDTLSECK (UniProt Q14966)”, the “probe-labelled cysteine peptide fold change” value rises from -0.0404 to -0.0183.

First: ZKSCAN1_P17029_63_FCYQNTFGPR (UniProt P17029)
Second: ZNF451_Q9Y4E5_364+367_GYCPDCNQVFVDETSTQNHK (UniProt Q9Y4E5)
The “probe-labelled cysteine peptide fold change” value of the first is higher: 0.113 for the first, 0.0418 for the second.

First: ZNF521_Q96K83_31_TEDGEALDCK (UniProt Q96K83)
Second: ZFP41_Q8N8Y5_154_AFNCGSNLLK (UniProt Q8N8Y5)
The “probe-labelled cysteine peptide fold change” value of the first is higher: 0.127 for the first, -0.095 for the second.

First: ZNF296_Q8WUU4_117_CLQTFPLEAITAFMDHK (UniProt Q8WUU4)
Second: ZNF670_Q9BS34_339_THTGVKPYGCK (UniProt Q9BS34)
The “probe-labelled cysteine peptide fold change” value of the first is higher: -0.0315 for the first, -0.11 for the second.

First: ZNF580_Q9UK33_122_VSHSDLKPFTCGACGK (UniProt Q9UK33)
Second: ZNF280C_Q8ND82_690_CDFLADSSGLDR (UniProt Q8ND82)
The “probe-labelled cysteine peptide fold change” value of the first is lower: -0.051 for the first, 0.0226 for the second.

First: ZFC3H1_O60293_1141_TMEVKPCPFRPYHSPLLVFK (UniProt O60293)
Second: ZFYVE1_Q9HBF4_71_LKPGHVPYCDLCK (UniProt Q9HBF4)
The “probe-labelled cysteine peptide fold change” value of the first is higher: -0.0675 for the first, -0.0815 for the second.

First: ZNF280C_Q8ND82_358_QNNESWENHTTCQHCYR (UniProt Q8ND82)
Second: ZNF131_P52739_9_MEAEETMECLQEFPEHHK (UniProt P52739)
The “probe-labelled cysteine peptide fold change” value of the first is higher: 0.21 for the first, -0.0981 for the second.

Going from “ZFP91_Q96JP5_182_TGSLQLICK (UniProt Q96JP5)” to “ZMYM3_Q14202_1048_LVLSESCSR (UniProt Q14202)”, the “probe-labelled cysteine peptide fold change” value rises from -0.203 to 0.15.

Compared with “ZMIZ2_Q8NF64_418_SPFLPDLKPNLNSLHSSPSGSGPCDELR (UniProt Q8NF64)”, “ZNF428_Q96B54_111_SPLGEAPPGTPPCR (UniProt Q96B54)” is lower in “probe-labelled cysteine peptide fold change” value: 0.0184 for the first, -0.138 for the second.

“ZFC3H1_O60293_1864_FCSVMPANSGLALR (UniProt O60293)” was tested, and the “probe-labelled cysteine peptide fold change” value was 0.1.
